Here are results for five substances from US20110207656A1.

Sequences of proteins named here, by UniProt entry; tags and fusion partners are left off. A change or cut given only in a name is not applied to a line headed by its entry.
UniProt Q14790: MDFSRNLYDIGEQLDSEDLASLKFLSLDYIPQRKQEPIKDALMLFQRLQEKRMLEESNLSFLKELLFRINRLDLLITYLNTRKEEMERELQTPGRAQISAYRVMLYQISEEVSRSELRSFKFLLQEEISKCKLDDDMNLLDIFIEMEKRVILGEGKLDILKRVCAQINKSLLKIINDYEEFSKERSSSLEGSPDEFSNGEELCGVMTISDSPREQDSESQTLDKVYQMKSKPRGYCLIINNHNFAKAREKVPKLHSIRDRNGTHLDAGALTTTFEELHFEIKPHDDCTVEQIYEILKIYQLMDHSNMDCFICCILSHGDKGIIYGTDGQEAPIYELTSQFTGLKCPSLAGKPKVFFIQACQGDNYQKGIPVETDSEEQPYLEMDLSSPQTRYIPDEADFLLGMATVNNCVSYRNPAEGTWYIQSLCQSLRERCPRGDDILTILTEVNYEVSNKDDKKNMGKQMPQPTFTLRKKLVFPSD
UniProt P15941: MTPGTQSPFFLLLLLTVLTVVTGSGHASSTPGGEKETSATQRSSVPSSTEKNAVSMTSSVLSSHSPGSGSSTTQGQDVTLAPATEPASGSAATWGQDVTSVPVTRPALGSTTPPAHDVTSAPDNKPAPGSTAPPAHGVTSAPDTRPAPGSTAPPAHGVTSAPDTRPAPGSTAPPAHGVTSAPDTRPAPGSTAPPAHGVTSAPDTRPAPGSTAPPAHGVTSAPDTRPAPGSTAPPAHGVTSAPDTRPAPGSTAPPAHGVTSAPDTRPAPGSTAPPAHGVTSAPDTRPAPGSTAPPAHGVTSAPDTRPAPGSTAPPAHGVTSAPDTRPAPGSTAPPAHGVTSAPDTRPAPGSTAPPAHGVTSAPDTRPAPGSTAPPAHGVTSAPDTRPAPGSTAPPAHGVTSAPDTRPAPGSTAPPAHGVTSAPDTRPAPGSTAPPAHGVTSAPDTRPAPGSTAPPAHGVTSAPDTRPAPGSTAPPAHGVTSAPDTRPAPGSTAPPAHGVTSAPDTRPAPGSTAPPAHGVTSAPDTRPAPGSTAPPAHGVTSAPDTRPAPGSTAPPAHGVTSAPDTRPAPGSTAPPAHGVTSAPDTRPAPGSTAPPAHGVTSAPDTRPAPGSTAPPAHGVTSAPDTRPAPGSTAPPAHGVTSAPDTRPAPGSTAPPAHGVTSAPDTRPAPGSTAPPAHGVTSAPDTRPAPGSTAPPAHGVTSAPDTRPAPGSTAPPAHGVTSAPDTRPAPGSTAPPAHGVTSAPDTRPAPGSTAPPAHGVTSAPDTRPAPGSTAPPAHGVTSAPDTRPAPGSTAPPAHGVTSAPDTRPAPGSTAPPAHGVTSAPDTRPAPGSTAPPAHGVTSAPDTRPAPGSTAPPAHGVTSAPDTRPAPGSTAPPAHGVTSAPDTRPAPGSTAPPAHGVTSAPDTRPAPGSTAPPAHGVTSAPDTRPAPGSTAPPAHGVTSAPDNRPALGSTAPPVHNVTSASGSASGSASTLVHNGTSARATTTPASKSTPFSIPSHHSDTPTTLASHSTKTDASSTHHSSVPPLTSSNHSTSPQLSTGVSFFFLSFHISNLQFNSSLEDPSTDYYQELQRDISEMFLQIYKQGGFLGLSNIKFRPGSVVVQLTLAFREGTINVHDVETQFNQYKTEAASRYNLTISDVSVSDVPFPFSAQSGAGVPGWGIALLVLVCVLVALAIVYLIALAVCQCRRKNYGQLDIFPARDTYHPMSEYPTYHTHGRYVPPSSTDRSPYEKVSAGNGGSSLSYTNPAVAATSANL
UniProt Q13158: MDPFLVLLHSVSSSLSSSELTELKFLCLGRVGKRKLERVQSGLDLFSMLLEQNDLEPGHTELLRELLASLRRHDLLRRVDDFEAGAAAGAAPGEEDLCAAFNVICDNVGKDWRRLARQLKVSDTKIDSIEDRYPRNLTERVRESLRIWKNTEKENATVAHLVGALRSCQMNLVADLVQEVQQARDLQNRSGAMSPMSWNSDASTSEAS

The target in one test is GST-caspase-8 (human) (UniProt Q14790). The test is described as follows: GST pull-down: His-MUC1-CD on GST-caspase-8 glutathione beads, anti-His immunoblot (FIG. 9A). In general terms: A western blot detects proteins with antibodies after separation by electrophoresis.
Test [1] addresses GST-caspase-8 fragment, amino acids 184-384 (includes caspase-8-p18) (human) (UniProt Q14790). The test is described as follows: GST pull-downs with purified proteins, immunoblot (legend of FIGS. 9A-9D).
The target is the same in test [2]. Briefly: GST pull-down: His-MUC1-CD on GST-caspase-8 fragments, anti-His immunoblot (FIG. 9B).
For test [3], the target named is T1, GST-MUC1-CD(1-20) (human).
T1 sequence: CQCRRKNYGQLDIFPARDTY
Briefly: GST pull-down: His-caspase-8(184-384) on GST-MUC1-CD fragments, anti-His immunoblot (FIG. 9D, upper).

The target of test [4] is GST-MUC1-CD(1-72) (human) (UniProt P15941). The test is described as follows: GST pull-down: His-caspase-8-p18 fragments on GST-MUC1-CD glutathione beads, anti-His immunoblot (FIG. 9C).
Test [5] has the same target. Briefly: GST pull-down: purified FADD on GST-MUC1-CD glutathione beads, anti-FADD immunoblot (FIG. 12A).
The target of a further test is GST-FADD (human) (UniProt Q13158). Briefly: GST pull-down: purified MUC1-CD on GST-FADD glutathione beads, anti-MUC1-C immunoblot (FIG. 12B).
In test [6] the target is purified FADD protein (human) (UniProt Q13158). Briefly: competition GST pull-down: MUC1-CD in increasing amounts against GST-caspase-8(1-183) for FADD (FIG. 12C).

These are yes or no findings as the source states them, for the method shown. For some assays here: Binding seen in cells or lysates may run through a third protein. Some entries that bind do so weakly or less than the wild type. For some assays here: Tags and fused reporters may be left off the sequences shown.

In the case of “His-MUC1-CD(1-72) (from UniProt P15941 1184-1255)”, the binding result (with GST-caspase-8 (human); in test [1]; in test [2]) was “binds” throughout.
As to “His-caspase-8(184-384) (from UniProt Q14790 184-384) (enzyme)”, in test [3], the binding entry was “binds”.
On to “His-caspase-8-p18-B (amino acids 270-322) (from UniProt Q14790 253-305)”, for which the binding entry in test [4] was “binds”.
In the case of “purified FADD protein (from UniProt Q13158 1-208)”, the binding entry in test [5] is given as “binds”.
For the substance “purified MUC1-CD protein (from UniProt P15941 1184-1255)”, the binding result (with GST-FADD (human); in test [6]) was “binds” each time.
